According to PubChem BioAssay AID624291 (National Center for Advancing Translational Sciences (NCATS), 2012):
In all, about 350,000 compounds went through this assay and about 220 (0.063%) were called active. Inconclusive results, whose numbers are uncertain, are shown with a selection of clear calls. The call rests on the fitted dose curve; in most records, active means well fitted activation curve with a large enough effect; inconclusive means small, poorly fitted or top-dose-only effect; inactive means no such curve, though single readings can be large or run the other way. A potency beside an inconclusive call is a rough fit, not a confirmed value.

Test: qHTS for Activators of Integrin-Mediated Alleviation for Muscular Dystrophy; further: nearly all actives have a fitted effect of over 60% in size;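 on activation: 100% = response of the positive control SU9516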
Settings: alpha7betagal myoblasts, beta-gal FDG fluorescence, 48 h; activation: at 38.3 µM (top of the series)
Summary of the method: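 alpha7betagal+/- myoblasts (passage 13, 250/well) treated 48 h at 37C with compounds at 1:260 dilution of DMSO stock. Lysed, then beta-galactosidase activity read as FDG fluorescence (ex 480/em 540) after 30 min, with pre-read for autofluorescence.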
Potency means the concentration at half of the fitted maximal effect.

Potency, inconclusive:
O=S(=O)(c1cccs1)N1CCC(CO)(Cc2cccc(F)c2)CC1 3.55 µM [activator, single point]
COc1ccc(CC(=O)NC(CC(=O)O)c2cccc([N+](=O)[O-])c2)cc1 (centres undefined) 12.6 µM [activator, single point]
O=C(N/N=C\c1cccnc1)c1ccc(Cl)s1 4.47 µM [activator, single point]
O=C(COC(=O)CNS(=O)(=O)/C=C/c1ccccc1)Nc1cccc2ccccc12 22.4 µM [activator, partial curve, poor fit]
Nc1nc(-c2ccc(Cl)cc2)c(S(=O)(=O)c2ccccc2)s1 2.24 µM [activator, full curve, poor fit]
NC(=O)CSc1nnc(COc2ccccc2)n1N 28.2 µM [activator, single point]
C(=N\n1cncn1)/c1ccc(N2CCOCC2)cc1 5.62 µM [activator, partial curve, poor fit]
CCCn1cnc2sc(CC)cc2c1=O 8.91 µM [activator, partial curve, poor fit]
COc1nsnc1N1CCOCC1 20 µM [activator, single point]
COc1cccc(C(=O)NN2CC(O)=C(c3nc4ccccc4s3)C2=N)c1 0.891 µM [activator, full curve, poor fit]
O=C(Cn1cnc2c(cnn2-c2ccccc2)c1=O)c1ccc(Cl)cc1 4.47 µM [activator, single point]
CCc1cc2cc(C)ccc2nc1SCC(=O)NC1CCCC1 22.4 µM [activator, single point]
CCC(=O)N1CCN(c2ccc(NC(=O)c3ccc(N4CCOCC4)c([N+](=O)[O-])c3)cc2)CC1 11.2 µM [activator, single point]
Cc1cccc(-n2c(C)cc(C=C(C#N)C#N)c2C)c1 5.62 µM [activator, partial curve, poor fit]
COc1ccccc1N1CCN(C(c2cccs2)C(C)NC(=O)C(=O)N2CCOCC2)CC1 (centres undefined) 11.2 µM [activator, partial curve, poor fit]
COc1ccc(/C=C(/NC(=O)c2ccc([N+](=O)[O-])cc2)C(=O)NCCCN(C)C)cc1 11.2 µM [activator, partial curve, poor fit]
Nc1c(-c2ccccc2)nnn1Cc1ccccc1 5.01 µM [activator, single point]
O=C(CCC(=O)OCc1ccc([N+](=O)[O-])cc1Cl)Nc1ccccc1 0.282 µM [activator, full curve, poor fit]
O=C(COC(=O)CCSc1ccccc1)Nc1ccccc1 5.01 µM [activator, single point]
Cn1nnc(NC(=O)c2cccc([N+](=O)[O-])c2)n1 28.2 µM [activator, single point]
CC(C)CN1C(=O)c2ccc(C(=O)Nc3ccccn3)cc2C1=O 28.2 µM [activator, single point]
O=C(COC(=O)CCC(=O)c1cccs1)Nc1ccccc1C(F)(F)F 2 µM [activator, full curve]
CCc1sc(C(=O)N2CCc3cc(OC)c(OC)cc3C2CC(=O)O)cc1C (centres undefined) 1.41 µM [activator, partial curve, poor fit]
Cc1ccc(/C([O-])=C(/C(=S)NCc2ccco2)[n+]2ccccc2)cc1[N+](=O)[O-] 2.82 µM [activator, partial curve, poor fit]
C=CCn1c(-c2ccccc2[N+](=O)[O-])n[nH]c1=S 10 µM [activator, single point]
Cc1ccccc1C(=O)NC1CC2CCCC(C1)N2Cc1ccc(Cl)cc1 (centres undefined) 2.51 µM [activator, single point]
CN(Cc1ccncn1)C(=O)C1CCC(=O)N(Cc2cccc(C(F)(F)F)c2)C1 (centres undefined) 5.62 µM [activator, partial curve, poor fit]
CN(c1ncnc(N)c1[N+](=O)[O-])C1CCS(=O)(=O)C1 (centres undefined) 28.2 µM [activator, single point]
COc1ccc(N(Cc2ccco2)C(=O)c2ccccc2F)cc1OC 5.01 µM [activator, single point]
COc1ccc(NC(=O)CCCNC(=O)Cn2cnc3sc4c(c3c2=O)CCCC4)c(OC)c1 3.55 µM [activator, full curve]
O=c1[nH]c(C2CCCN(S(=O)(=O)c3cccc(Cl)c3)C2)nc2c1nnn2Cc1ccc2c(c1)OCCO2 (centres undefined) 12.6 µM [activator, partial curve, poor fit]
O=C(NC(=S)NCc1ccco1)c1ccccc1[N+](=O)[O-] 1.41 µM [activator, single point]
O=C(Nc1ccccc1)c1ccc(-c2ccccc2)s1 5.01 µM [activator, single point]
O=C(O)c1ccc(N2C(=O)c3[nH]nc(-c4ccccc4)c3C2c2ccccc2)cc1 (centres undefined) 5.01 µM [activator, single point]
CC(C)N(Cc1nc(-c2ccccc2)no1)C(=O)CN(C)S(=O)(=O)c1ccc(Br)cc1 10 µM [activator, single point]
O=C(N1CCOCC1)N(Cc1cccs1)C1CCCC1 14.1 µM [activator, single point]
COc1ccc(NC(=O)CCNC(=O)N2CC(=O)Nc3ccccc32)c(OC)c1 8.91 µM [activator, partial curve, poor fit]
Cn1nc(C(=O)NCCc2ccc(Cl)cc2)c2c1-c1ccccc1S(=O)(=O)C2 1.12 µM [activator, partial curve, poor fit]
NC(=O)c1nsc(C(=O)N(Cc2cccnc2)C(C(=O)NCc2ccc(F)cc2)c2ccc(O)cc2)c1N (centres undefined) 0.891 µM [activator, full curve, poor fit]
CCOC(=O)c1sc2nc(C)nc(SC(C)C(=O)NC3CC3)c2c1C (centres undefined) 12.6 µM [activator, single point]
COc1ccc(N2C(=O)c3ccc(C(=O)Nc4ccccc4O)cc3C2=O)cc1 28.2 µM [activator, single point]
COc1ccc(C(=O)NCC(=O)N2CCCCC2)cc1OC 5.01 µM [activator, single point]
CCCCC(=O)Nc1ccc2c(c1)nc1n2CCSC1 5.01 µM [activator, single point]
COc1cc2c(cc1[N+](=O)[O-])-c1ccccc1C2 5.01 µM [activator, single point]
COc1cc([N+](=O)[O-])cc(/C=N/NC(=O)C(O)(c2ccccc2)c2ccccc2)c1O 7.08 µM [activator, partial curve, poor fit]

Looked up by structure from above, 3 records:
Potency, inconclusive:
O=C(O)c1ccc(N2C(=O)c3[nH]nc(-c4ccccc4)c3C2c2ccccc2)cc1 (centres undefined) 5.01 µM [activator, single point]
COc1cc2c(cc1[N+](=O)[O-])-c1ccccc1C2 5.01 µM [activator, single point]
Cn1nc(C(=O)NCCc2ccc(Cl)cc2)c2c1-c1ccccc1S(=O)(=O)C2 1.12 µM [activator, partial curve, poor fit]

Following part.

Potency, active:
COc1ccc(Nc2ncnc3ccc(Br)cc23)cc1OC 3.98 µM
CC(OC(=O)c1cc(-c2cccnc2)nc2ccccc12)C(=O)Nc1ccc2ccccc2c1 (centres undefined) 1.12 µM

Potency, inactive:
CC1(c2nnc(-c3cccc(Cl)c3)o2)CC(c2cccnc2)=NO1 (centres undefined)
C=C(C)COc1ccc(-c2nc(N)ncc2Oc2ccccc2OC)c(O)c1
CCOC(=O)c1cc2c(=O)n3ccccc3nc2n(C)c1=NC(=O)c1c(-c2c(F)cccc2Cl)noc1C
Cc1cc(N2C(=O)C(O)=C(C(=O)c3ccco3)C2c2cccc(Cl)c2)no1 (centres undefined)
O=C(O)c1cc([N+](=O)[O-])ccc1NCc1ccccc1
O=C1CC(c2ccc(O)c(O)c2)Oc2cc(O)cc(O)c21 (centres undefined)
CC(C)OCCCNc1ncnc2c1[nH]c1ccccc12
COc1ccc(/C=N/NC(=O)c2cccc(NC(C)=O)c2)c(OC)c1
O=C(Nc1ccccc1)c1cc(S(=O)(=O)NCc2ccncc2)ccc1Cl
Oc1c(C(Nc2cccc(C(F)(F)F)c2)c2ccncc2)ccc2cccnc12 (centres undefined)
COc1ccc(C(CCNCc2ccc(N(C)C)cc2)C(C)C)cc1 (centres undefined)
O=C(c1cc(-c2ccc3c(c2)OCO3)on1)N1CCCCC1
CCC1CCCCN1CCCNC(=O)C1CCN(Cc2nc(-c3ccc(Cl)cc3)oc2C)CC1 (centres undefined)
O=C(Nc1nccs1)c1ccccc1[N+](=O)[O-]
COc1ccccc1N(C)S(=O)(=O)c1ccc(Cl)c(C(=O)Nc2cccc(C)n2)c1
Oc1ccccc1CNc1ccc(Br)cn1
O=C(Nc1cc(Cl)ncn1)c1ccccc1
CCN(CC)CCN(C(=O)c1ccc2c(c1)OCCO2)c1nc2cc(C)cc(C)c2s1
Cc1ccc(-c2nn3c(C)nnc3s2)cc1NC(=O)c1ccc(-c2ccc(Cl)cc2Cl)o1
O=C(CNC(=O)C1CCCCC1)OCc1cc(=O)oc2ccc3ccccc3c12
CC(=O)N1N=C(c2cccc([N+](=O)[O-])c2)OC1c1ccc(Br)cc1 (centres undefined)

Part of the list above in order of molar mass, smallest number first.
Potency, inactive:
O=C(O)c1cc([N+](=O)[O-])ccc1NCc1ccccc1
COc1ccc(C(CCNCc2ccc(N(C)C)cc2)C(C)C)cc1 (centres undefined)
CCOC(=O)c1cc2c(=O)n3ccccc3nc2n(C)c1=NC(=O)c1c(-c2c(F)cccc2Cl)noc1C

Next part:

activation, inconclusive:
O=C(CSC1=NCCS1)Nc1ccc(F)cc1 -2.97% [activator]
